The list shows a part of the results.
Compound: CC1Cc2ccccc2N1C(=O)C1CCCN(C1)C(=O)CCl (mixture of isomers) [TRIM25 ligand 11 (diastereomer mixture)]
Experiment: probe-labelled cysteine peptide fold change vs DMSO (competition) (log2 fold change); higher = less target engagement (more negative = stronger competition)
Conditions: THP-1, incubation time: 4 h
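Note: competitive chemoproteomic profiling in live THP-1 cells with an iodoacetamide desthiobiotin (IA-DTB) probe, comparing probe-labelled peptide intensities in compound-treated cells against DMSO-treated controls.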

Chains of the proteins cited; added tags and fusions are not shown. Lines headed by an entry give the natural chain unless they say otherwise; changes in a name come on top.
UniProt Q9UIV1, whole entry, looked up: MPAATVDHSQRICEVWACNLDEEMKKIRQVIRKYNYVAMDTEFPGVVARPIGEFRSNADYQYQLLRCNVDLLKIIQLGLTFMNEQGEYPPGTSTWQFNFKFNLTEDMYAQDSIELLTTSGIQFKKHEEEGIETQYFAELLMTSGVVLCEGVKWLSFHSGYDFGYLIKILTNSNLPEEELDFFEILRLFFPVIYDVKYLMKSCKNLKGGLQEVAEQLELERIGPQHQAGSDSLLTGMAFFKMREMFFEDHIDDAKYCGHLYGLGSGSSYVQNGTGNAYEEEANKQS
UniProt Q99807: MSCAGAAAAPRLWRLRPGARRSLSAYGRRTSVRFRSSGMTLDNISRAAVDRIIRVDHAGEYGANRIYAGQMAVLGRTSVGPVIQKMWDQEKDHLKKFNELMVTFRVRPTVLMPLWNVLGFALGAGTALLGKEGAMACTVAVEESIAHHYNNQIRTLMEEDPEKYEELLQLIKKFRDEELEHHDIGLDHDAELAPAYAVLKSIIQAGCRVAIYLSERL
UniProt Q92905, whole entry, looked up: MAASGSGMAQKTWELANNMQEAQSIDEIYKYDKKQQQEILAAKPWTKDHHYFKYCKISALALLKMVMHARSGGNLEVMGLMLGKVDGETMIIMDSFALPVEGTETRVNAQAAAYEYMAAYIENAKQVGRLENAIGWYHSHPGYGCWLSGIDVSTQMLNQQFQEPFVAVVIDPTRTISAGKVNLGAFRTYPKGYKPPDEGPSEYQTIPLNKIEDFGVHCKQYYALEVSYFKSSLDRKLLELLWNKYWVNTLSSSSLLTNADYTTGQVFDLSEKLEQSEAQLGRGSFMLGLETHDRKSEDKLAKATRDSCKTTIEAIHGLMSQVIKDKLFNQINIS
UniProt Q96JB2: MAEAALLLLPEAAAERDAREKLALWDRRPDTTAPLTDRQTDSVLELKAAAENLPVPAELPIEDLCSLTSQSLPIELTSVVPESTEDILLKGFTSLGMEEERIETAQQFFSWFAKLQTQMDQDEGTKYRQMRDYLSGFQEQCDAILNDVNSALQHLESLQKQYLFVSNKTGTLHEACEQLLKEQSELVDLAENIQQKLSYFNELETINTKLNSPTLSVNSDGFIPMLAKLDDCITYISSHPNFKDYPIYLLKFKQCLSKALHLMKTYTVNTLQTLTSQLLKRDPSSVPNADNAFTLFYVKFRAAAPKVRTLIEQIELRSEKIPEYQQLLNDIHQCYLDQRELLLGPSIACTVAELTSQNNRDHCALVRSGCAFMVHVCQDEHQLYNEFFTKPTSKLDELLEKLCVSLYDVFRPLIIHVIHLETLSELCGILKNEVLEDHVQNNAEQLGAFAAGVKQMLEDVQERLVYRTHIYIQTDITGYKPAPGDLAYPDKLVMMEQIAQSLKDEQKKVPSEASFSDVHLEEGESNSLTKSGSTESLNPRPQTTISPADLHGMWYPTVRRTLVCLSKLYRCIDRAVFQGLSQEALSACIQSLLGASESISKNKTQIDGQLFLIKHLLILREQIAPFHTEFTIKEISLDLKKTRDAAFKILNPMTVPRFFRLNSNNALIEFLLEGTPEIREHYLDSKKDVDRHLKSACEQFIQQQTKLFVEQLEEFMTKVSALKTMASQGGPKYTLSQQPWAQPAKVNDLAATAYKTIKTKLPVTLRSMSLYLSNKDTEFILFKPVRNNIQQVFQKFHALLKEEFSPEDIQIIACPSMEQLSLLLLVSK
UniProt Q7Z7A1: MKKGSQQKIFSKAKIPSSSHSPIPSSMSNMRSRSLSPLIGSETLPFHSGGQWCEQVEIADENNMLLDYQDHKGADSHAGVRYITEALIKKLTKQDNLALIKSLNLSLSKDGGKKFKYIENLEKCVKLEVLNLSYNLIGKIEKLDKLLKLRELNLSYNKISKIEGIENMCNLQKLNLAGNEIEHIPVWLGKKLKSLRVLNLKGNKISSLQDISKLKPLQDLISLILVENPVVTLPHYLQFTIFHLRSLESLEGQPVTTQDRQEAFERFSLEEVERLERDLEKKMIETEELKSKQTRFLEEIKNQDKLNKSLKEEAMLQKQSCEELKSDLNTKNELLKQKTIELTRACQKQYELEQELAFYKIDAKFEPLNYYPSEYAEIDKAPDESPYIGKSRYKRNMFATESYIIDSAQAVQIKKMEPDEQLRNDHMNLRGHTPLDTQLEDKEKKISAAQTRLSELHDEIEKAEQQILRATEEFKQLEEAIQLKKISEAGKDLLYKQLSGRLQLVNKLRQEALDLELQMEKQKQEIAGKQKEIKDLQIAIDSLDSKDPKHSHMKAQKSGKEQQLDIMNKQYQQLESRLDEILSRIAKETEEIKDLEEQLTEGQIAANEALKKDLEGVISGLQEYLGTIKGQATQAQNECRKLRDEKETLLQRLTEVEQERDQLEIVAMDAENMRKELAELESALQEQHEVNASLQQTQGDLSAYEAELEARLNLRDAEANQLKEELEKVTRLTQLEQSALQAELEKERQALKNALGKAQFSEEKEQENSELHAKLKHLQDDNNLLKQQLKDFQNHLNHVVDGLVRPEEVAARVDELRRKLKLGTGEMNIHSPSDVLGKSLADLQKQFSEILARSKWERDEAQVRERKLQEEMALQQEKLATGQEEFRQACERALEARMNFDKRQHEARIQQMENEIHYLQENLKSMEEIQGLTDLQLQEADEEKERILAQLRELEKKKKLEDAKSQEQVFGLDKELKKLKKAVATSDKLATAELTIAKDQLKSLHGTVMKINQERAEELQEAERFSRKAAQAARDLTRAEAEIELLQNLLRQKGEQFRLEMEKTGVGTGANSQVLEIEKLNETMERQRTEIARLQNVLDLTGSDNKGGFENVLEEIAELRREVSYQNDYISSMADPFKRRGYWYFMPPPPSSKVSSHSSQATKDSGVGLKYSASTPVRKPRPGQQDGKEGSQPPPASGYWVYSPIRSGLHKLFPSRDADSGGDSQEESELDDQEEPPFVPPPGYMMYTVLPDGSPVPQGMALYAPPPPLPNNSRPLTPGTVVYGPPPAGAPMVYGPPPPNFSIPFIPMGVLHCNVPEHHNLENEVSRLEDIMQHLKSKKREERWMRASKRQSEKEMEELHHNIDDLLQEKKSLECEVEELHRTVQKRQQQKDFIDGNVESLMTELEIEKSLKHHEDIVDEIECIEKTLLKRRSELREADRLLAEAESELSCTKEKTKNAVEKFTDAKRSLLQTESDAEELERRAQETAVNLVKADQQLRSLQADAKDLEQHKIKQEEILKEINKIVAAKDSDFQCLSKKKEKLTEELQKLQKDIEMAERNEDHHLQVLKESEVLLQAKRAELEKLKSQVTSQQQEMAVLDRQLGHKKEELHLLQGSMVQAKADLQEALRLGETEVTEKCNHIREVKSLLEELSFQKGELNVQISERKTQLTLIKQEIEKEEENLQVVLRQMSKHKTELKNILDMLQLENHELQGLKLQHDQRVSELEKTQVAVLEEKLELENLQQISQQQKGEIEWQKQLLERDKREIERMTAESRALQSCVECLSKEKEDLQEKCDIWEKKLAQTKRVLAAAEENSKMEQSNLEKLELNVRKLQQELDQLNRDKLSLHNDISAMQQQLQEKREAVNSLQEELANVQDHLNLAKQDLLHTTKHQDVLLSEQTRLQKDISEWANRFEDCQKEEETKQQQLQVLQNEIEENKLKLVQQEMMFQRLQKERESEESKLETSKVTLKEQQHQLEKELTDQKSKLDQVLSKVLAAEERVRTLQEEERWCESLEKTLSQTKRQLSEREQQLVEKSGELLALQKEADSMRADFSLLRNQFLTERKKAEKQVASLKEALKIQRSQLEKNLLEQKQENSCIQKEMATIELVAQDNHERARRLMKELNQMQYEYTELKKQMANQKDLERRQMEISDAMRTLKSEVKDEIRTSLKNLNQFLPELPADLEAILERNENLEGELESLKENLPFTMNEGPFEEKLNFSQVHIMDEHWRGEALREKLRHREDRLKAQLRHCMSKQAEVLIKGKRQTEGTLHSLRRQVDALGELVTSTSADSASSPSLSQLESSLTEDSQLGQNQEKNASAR
UniProt Q9UBF2: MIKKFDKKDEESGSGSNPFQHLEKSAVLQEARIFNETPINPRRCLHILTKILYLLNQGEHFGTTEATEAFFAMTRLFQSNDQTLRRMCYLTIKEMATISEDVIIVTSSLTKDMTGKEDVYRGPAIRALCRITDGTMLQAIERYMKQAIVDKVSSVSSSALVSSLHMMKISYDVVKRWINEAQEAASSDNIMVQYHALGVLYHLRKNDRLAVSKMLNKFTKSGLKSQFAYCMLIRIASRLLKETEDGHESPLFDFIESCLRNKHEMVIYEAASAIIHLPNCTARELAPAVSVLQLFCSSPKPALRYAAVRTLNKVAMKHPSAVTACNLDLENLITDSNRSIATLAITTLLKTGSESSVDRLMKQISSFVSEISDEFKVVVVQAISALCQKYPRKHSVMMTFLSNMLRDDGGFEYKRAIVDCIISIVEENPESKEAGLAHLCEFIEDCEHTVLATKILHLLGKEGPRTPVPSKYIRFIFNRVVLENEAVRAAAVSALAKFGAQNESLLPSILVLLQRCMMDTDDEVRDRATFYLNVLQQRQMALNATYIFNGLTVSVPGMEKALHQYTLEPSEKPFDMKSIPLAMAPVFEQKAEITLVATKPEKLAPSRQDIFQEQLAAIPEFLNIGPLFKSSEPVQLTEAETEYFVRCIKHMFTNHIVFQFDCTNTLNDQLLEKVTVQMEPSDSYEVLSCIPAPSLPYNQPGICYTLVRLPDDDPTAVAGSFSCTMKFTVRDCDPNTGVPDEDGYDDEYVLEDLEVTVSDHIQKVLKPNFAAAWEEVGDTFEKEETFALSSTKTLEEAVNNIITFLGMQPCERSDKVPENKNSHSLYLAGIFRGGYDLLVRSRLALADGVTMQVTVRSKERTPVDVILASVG
UniProt Q8NFW8: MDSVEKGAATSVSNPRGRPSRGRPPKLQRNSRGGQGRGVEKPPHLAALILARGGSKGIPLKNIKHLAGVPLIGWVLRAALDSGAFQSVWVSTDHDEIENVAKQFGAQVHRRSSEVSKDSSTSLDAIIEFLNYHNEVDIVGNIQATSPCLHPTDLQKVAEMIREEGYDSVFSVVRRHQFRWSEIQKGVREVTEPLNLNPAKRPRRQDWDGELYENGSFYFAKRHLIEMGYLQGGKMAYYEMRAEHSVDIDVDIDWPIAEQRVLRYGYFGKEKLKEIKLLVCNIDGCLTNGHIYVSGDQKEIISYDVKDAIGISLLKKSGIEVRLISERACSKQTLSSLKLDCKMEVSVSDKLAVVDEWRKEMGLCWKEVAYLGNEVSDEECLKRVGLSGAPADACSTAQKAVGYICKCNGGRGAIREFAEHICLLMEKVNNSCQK
UniProt Q96MW5: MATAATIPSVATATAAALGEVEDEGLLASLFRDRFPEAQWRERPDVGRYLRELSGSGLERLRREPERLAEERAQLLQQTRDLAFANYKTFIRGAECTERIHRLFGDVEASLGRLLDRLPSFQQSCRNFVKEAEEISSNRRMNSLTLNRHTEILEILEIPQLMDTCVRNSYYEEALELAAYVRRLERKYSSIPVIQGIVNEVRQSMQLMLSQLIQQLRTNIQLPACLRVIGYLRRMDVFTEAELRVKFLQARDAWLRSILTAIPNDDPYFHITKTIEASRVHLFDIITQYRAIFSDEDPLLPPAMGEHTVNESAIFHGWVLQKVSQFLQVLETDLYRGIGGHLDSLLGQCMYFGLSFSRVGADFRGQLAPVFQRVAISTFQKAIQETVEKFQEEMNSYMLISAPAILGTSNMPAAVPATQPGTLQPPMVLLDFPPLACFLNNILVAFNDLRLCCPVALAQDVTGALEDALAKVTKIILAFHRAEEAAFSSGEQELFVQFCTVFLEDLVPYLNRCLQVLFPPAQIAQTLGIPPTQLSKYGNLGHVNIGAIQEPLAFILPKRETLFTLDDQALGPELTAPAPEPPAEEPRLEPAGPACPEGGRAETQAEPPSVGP
UniProt Q9Y5P4: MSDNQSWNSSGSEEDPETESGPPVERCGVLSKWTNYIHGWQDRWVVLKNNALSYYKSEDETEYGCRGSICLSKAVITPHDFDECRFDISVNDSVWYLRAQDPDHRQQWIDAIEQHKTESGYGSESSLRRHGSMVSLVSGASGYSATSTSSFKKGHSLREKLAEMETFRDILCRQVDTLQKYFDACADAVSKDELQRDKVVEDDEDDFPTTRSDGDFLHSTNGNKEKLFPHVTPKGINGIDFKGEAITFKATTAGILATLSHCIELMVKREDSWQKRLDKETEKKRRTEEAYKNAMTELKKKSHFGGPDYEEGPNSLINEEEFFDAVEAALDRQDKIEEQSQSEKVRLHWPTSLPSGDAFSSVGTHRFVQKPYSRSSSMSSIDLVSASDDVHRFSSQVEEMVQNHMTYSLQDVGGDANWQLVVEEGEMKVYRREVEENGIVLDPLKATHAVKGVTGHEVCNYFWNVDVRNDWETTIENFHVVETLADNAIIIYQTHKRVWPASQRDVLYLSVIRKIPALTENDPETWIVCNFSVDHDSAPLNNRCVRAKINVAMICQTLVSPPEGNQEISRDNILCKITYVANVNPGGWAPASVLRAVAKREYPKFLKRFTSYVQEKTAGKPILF

Target: CNOT7_Q9UIV1_148_KHEEEGIETQYFAELLMTSGVVLCEGVK (UniProt Q9UIV1)
- probe-labelled cysteine peptide fold change (10 µM): 0.163
- probe-labelled cysteine peptide fold change (50 µM): 0.124

Target: COG2_Q14746_415_FREIAGSLEAALTDVLEDAPAESPYCLLASHR (UniProt Q14746)
- probe-labelled cysteine peptide fold change (10 µM): 0.15
- probe-labelled cysteine peptide fold change (50 µM): 0.0753

Target: CMIP_Q8IY22_514_FAEDPRQEVHSCLLSVR (UniProt Q8IY22)
- probe-labelled cysteine peptide fold change (10 µM): 0.0466
- probe-labelled cysteine peptide fold change (50 µM): 0.0762

Target: COPA_P53621_1191_CPLSGACYSPEFK (UniProt P53621)
- probe-labelled cysteine peptide fold change (10 µM): -0.236
- probe-labelled cysteine peptide fold change (50 µM): -0.0658

Target: COQ7_Q99807_137_EGAMACTVAVEESIAHHYNNQIR (UniProt Q99807)
- probe-labelled cysteine peptide fold change (10 µM): -0.0333
- probe-labelled cysteine peptide fold change (50 µM): -0.065

Target: COPS5_Q92905_218_IEDFGVHCK (UniProt Q92905)
- probe-labelled cysteine peptide fold change (10 µM): -0.0105
- probe-labelled cysteine peptide fold change (50 µM): 0.00955

Target: COG3_Q96JB2_349_ELLLGPSIACTVAELTSQNNR (UniProt Q96JB2)
- probe-labelled cysteine peptide fold change (10 µM): -0.138
- probe-labelled cysteine peptide fold change (50 µM): -0.147

Target: CNTRL_Q7Z7A1_1451_LLAEAESELSCTK (UniProt Q7Z7A1)
- probe-labelled cysteine peptide fold change (10 µM): 0.167
- probe-labelled cysteine peptide fold change (50 µM): -0.0151

Target: COPG2_Q9UBF2_387_VVVVQAISALCQK (UniProt Q9UBF2)
- probe-labelled cysteine peptide fold change (10 µM): 0.0809
- probe-labelled cysteine peptide fold change (50 µM): 0.204

Target: CMAS_Q8NFW8_380_EVAYLGNEVSDEECLKR (UniProt Q8NFW8)
- probe-labelled cysteine peptide fold change (10 µM): -0.0408
- probe-labelled cysteine peptide fold change (50 µM): -0.052

Target: CNOT1_A5YKK6_1420_IAMTTCEQIVR (UniProt A5YKK6)
- probe-labelled cysteine peptide fold change (10 µM): 0.095
- probe-labelled cysteine peptide fold change (50 µM): 0.0403

Target: COG8_Q96MW5_595_LEPAGPACPEGGR (UniProt Q96MW5)
- probe-labelled cysteine peptide fold change (10 µM): 0.133
- probe-labelled cysteine peptide fold change (50 µM): 0.00286

Target: COG3_Q96JB2_349+363_ELLLGPSIACTVAELTSQNNRDHCALVR (UniProt Q96JB2)
- probe-labelled cysteine peptide fold change (10 µM): 0.181
- probe-labelled cysteine peptide fold change (50 µM): 0.179

Target: COL4A3BP_Q9Y5P4_575_DNILCK (UniProt Q9Y5P4)
- probe-labelled cysteine peptide fold change (10 µM): 0.0373
- probe-labelled cysteine peptide fold change (50 µM): 0.157

Source: the supplement of paper PMC12067093, “Discovery and optimisation of a covalent ligand for TRIM25 and its application to targeted protein ubiquitination” (Chemical Science, 2025)
